{"source": "paper PMC4115637", "about": "(Pharmacology Research & Perspectives, 2014)", "target": "T1, human TRPV3 (Homo sapiens, UniProt Q8NET8)", "T1 sequence (Q8NET8 1-790)": "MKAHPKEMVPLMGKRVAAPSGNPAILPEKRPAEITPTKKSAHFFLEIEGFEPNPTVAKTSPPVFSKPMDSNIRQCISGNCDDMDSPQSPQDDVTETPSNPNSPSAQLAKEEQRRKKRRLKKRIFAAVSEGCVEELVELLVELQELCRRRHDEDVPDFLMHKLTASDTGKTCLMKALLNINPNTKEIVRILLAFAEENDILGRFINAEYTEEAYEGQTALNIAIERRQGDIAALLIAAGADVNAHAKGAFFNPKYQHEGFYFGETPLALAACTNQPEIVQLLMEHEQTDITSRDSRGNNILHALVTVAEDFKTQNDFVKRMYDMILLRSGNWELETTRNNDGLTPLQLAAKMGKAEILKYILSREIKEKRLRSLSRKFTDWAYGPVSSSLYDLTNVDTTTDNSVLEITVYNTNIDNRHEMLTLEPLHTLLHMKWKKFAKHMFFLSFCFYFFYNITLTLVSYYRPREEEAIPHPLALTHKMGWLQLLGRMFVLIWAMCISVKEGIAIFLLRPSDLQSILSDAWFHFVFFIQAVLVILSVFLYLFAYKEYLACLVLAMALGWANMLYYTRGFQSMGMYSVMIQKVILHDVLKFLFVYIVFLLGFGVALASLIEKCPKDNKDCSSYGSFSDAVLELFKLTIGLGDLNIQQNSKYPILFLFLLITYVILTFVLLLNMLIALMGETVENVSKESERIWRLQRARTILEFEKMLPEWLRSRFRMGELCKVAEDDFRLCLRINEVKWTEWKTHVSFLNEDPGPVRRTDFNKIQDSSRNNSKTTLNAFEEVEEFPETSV", "assay": "Re-evaluation of screening hits as TRPV3 agonists", "format": "cell-based", "data": [{"smiles": "CCN(CC)CCOC(=O)C1(C2CCCCC2)CCCCC1", "note": "[dicyclomine]", "values": [{"measurement": "TRPV3 agonist or antagonist activity, screening results", "value": "neither a TRPV3 agonist nor antagonist"}]}]}
